# Measurements from publication PMC10470531.
# Amino acid sequences for entries named in this document (tags omitted). A change or cut given only in a name is not applied to a line headed by its entry. Residues count along the entry.
# UniProt P02769, residues 25-607: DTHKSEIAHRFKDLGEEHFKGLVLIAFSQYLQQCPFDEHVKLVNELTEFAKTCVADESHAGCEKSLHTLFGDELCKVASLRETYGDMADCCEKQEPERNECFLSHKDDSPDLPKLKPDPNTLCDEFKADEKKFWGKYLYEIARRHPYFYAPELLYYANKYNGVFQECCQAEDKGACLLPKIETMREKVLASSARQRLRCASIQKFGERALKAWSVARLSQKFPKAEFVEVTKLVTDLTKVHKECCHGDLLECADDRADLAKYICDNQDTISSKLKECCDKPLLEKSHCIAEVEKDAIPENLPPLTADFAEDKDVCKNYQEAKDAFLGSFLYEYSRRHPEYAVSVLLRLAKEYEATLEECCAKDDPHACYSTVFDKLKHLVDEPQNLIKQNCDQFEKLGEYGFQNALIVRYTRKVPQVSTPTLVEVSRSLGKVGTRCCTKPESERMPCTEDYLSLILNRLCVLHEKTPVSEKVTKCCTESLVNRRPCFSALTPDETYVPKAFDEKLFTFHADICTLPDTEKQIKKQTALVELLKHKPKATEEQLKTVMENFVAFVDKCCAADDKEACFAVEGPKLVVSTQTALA
# UniProt D4GVJ5: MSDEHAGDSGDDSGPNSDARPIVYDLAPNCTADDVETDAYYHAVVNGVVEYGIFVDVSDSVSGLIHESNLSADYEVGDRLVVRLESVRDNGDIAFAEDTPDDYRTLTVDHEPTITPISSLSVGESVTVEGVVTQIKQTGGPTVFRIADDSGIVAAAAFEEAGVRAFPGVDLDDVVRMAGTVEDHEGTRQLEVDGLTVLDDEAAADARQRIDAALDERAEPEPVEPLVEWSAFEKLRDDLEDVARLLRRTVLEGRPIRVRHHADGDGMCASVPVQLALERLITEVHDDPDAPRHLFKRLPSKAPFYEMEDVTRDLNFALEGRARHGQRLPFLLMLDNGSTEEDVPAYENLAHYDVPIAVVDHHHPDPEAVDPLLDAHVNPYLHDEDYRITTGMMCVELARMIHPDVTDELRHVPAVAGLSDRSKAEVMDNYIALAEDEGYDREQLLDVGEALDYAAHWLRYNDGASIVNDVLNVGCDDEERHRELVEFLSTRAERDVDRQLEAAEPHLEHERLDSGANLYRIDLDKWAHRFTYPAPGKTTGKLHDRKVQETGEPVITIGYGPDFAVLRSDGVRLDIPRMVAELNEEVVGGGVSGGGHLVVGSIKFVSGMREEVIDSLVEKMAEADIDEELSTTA
# Key:
# [1] = biological target: T1, aRNase J-StrepII (H. volcanii) (UniProt D4GW49); assay: affinity purification with mass spectrometry; tandem affinity purification (HisTrap, then Strep-Tactin) of His6-RecJ3 and aRNase J-StrepII from H. volcanii HJ02-pJAM4252 against the empty vector; 2 M NaCl buffers; LC-MS/MS of the liquid fractions and AQUA-based MS/MS (SRM with heavy peptides) for the stoichiometry
# T1 sequence: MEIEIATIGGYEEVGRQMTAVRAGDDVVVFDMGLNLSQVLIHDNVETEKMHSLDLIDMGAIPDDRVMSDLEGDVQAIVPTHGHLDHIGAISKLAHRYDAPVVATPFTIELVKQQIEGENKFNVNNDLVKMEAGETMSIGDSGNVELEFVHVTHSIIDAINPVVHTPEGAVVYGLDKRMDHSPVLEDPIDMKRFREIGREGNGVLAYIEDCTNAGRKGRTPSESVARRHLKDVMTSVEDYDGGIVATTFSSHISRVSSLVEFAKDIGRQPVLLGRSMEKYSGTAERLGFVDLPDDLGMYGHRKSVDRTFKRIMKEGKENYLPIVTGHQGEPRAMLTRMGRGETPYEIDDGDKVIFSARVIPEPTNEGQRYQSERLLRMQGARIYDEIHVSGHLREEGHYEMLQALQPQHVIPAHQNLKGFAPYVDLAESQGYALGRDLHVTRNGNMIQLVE
# [2] = biological target: T2, Ubl SAMP1 with an N-terminal Flag-His6-tag (H. volcanii) (UniProt D4GUF6); assay: condition: only ATP omitted from the binding buffer; affinity purification with mass spectrometry; as a1 but ATP omitted from the cell-free extract / binding buffer; only the target purified
# T2 sequence: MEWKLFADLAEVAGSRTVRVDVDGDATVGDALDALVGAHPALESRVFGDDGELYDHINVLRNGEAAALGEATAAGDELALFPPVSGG
# [3] = biological target: bovine serum albumin (bovine) (UniProt P02769); assay: affinity purification with mass spectrometry; Flag-His6-SAMP1 (or BSA as control) covalently coupled to agarose beads (AminoLink Plus); H. volcanii NH02-pJAM957 cell lysate with 5 mM ATP and DNase; high-salt PBS (2 M NaCl, 0.1 M sodium phosphate), 4°C; eluted with 0.1 M glycine-HCl pH 2.5; non-reducing SDS-PAGE, SYPRO Ruby, LC-MS/MS of bands; only the target purified
# [4] = biological target: T2, Ubl SAMP1 with an N-terminal Flag-His6-tag (H. volcanii); assay: as above
# [5] = biological target: T1, aRNase J-StrepII (H. volcanii); assay: affinity purification with mass spectrometry; aRNase J-StrepII on Strep-Tactin resin from H. volcanii H26-pJAM1406 lysate against the empty vector; 50 mM Tris-HCl pH 7.5, 2 M NaCl, 1 mM DTT, 0.5 mM MnCl2, 4.5 mM MgCl2, 0.1 mM γATP; beads boiled, reducing SDS-PAGE, LC-MS/MS
binding [1],binding [2],binding [3],binding [4],binding [5],Substance
binds,,,,,DnaK chaperone
,no binding,no binding,binds,,RecJ3 (from UniProt D4GVJ5)
,no binding,,binds,binds,RecJ4

# No constants are given. Whether binding was seen depends on the method and setting. Binding seen in cells or lysates may run through a third protein. Here binding means that the protein was enriched with, or labelled near, the bait; the list need not be complete. For some of these results: No binding means not detected with the bait. For some of these results: Sequences can lack the tags named with a protein.
